Laboratory results as given in patent publication US8889903B2, “Synthesis of rare earth metal extractant” (Shin-Etsu Chemical Co., Ltd., priority 2010, dated 2014).

Assay: Extraction/separation test (solvent extraction of a Pr/Nd mixture)
Details: organic phase 0.3 mol/L in hexanol versus aqueous 0.1 mol/L Pr+Nd, 20° C.

**Q.** With CCCCCCCCN(CCCCCCCC)C(=O)COCC(=O)O [Example 2, N,N-dioctyl-3-oxapentane-1,5-amic acid] as the compound, how does the Phase separation read?
**A.** satisfactory; also recorded: definite

**Q.** With CCCCCCCCN(CCCCCCCC)C(=O)COCC(=O)O [Example 4, N,N-dioctyl-3-oxapentane-1,5-amic acid] as the compound, how does the Phase separation read?
**A.** satisfactory; also recorded: definite

**Q.** With CCCCCCCCN(CCCCCCCC)C(=O)COCC(=O)O [Example 5, N,N-dioctyl-3-oxapentane-1,5-amic acid] as the compound, how does the Phase separation read?
**A.** satisfactory; also recorded: definite

**Q.** For CCCCCCCCN(CCCCCCCC)C(=O)COCC(=O)O [Comparative Example 3, N,N-dioctyl-3-oxapentane-1,5-amic acid, reference compound], which Phase separation is on record?
**A.** indefinite phase separation

“Also recorded” adds a separate entry of the source.
